# Source: the supplement of paper PMC8728848
# This is one part of the list.
# B1: SJCP3842 (Schistosoma japonicum) (protein)
# chain: MFKMRIINLVNISTVLLLINLLQTKSRLVGKENGFMLTVSIYGAQLSDKMTSVPVSWTIDYEDPEKSAFKKLVTDSCDTFSEYVKSQIPKGSVDGQCTSHIFQRPGSGSGVSISLTLSFIYVDVTQPDTVALKTELEKHFANFVTIHSHKITQAQFRINQKAIVIPTGDKDAIDGSKWKIIAIIALVALAIVVIGGFIYICVK
# How the values were obtained:
# Assay in all cases: glycan array binding signal (z-score within array); higher = stronger binding
# Settings in all cases: glycan notation: IUPAC condensed, linker removed
# [1] = target: Neu5Ac(a2-6)Gal(b1-4)GlcNAc(b1-2)Man(a1-3)[Man(a1-6)]Man(b1-4)GlcNAc(b1-4)GlcNAc
# Summary of the method: (§1)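 Arrays were curated from the Consortium for Functional Glycomics database, 3228 in total, and kept only where the protein sequence was available. Binding is expressed as a within-array Z-score. This score was averaged across arrays of the same protein sequence at different concentrations or buffers and across linkers, and negative values can be read as non-binding.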
# [2] = target: Neu5Ac(a2-6)Gal(b1-4)GlcNAc(b1-2)Man(a1-3)[Neu5Ac(a2-3)Gal(b1-4)GlcNAc(b1-2)Man(a1-6)]Man(b1-4)GlcNAc(b1-4)GlcNAc
# Summary of the method: as §1
# [3] = target: Neu5Ac(a2-6)Gal(b1-4)GlcNAc(b1-2)Man(a1-3)[Neu5Ac(a2-6)Gal(b1-4)GlcNAc(b1-2)Man(a1-6)]Man(b1-4)GlcNAc(b1-4)GlcNAc
# Summary of the method: as §1
# [4] = target: Neu5Ac(a2-6)Gal(b1-4)GlcNAc(b1-2)Man(a1-3)[Neu5Ac(a2-6)Gal(b1-4)GlcNAc(b1-2)Man(a1-6)]Man(b1-4)GlcNAc(b1-4)[Fuc(a1-6)]GlcNAc
# Summary of the method: as §1
# [5] = target: Neu5Ac(a2-6)Gal(b1-4)GlcNAc(b1-2)Man(a1-6)Man(b1-4)GlcNAc(b1-4)GlcNAc
# Summary of the method: as §1
# [6] = target: Neu5Ac(a2-6)Gal(b1-4)GlcNAc(b1-2)Man(a1-6)[Gal(b1-4)GlcNAc(b1-2)Man(a1-3)]Man(b1-4)GlcNAc(b1-4)GlcNAc
# Summary of the method: as §1
# [7] = target: Neu5Ac(a2-6)Gal(b1-4)GlcNAc(b1-2)Man(a1-6)[GlcNAc(b1-2)Man(a1-3)]Man(b1-4)GlcNAc(b1-4)GlcNAc
# Summary of the method: as §1
# [8] = target: Neu5Ac(a2-6)Gal(b1-4)GlcNAc(b1-2)Man(a1-6)[Man(a1-3)]Man(b1-4)GlcNAc(b1-4)GlcNAc
# Summary of the method: as §1
# [9] = target: Neu5Ac(a2-6)Gal(b1-4)GlcNAc(b1-2)[Neu5Ac(a2-6)Gal(b1-4)GlcNAc(b1-4)]Man(a1-3)[GlcNAc(b1-4)][Neu5Ac(a2-6)Gal(b1-4)GlcNAc(b1-2)[Neu5Ac(a2-6)Gal(b1-4)GlcNAc(b1-6)]Man(a1-6)]Man(b1-4)GlcNAc(b1-4)GlcNAc
# Summary of the method: as §1
# [10] = target: Neu5Ac(a2-6)Gal(b1-4)GlcNAc(b1-2)[Neu5Ac(a2-6)Gal(b1-4)GlcNAc(b1-4)]Man(a1-3)[GlcNAc(b1-4)][Neu5Ac(a2-6)Gal(b1-4)GlcNAc(b1-4)Man(a1-6)]Man(b1-4)GlcNAc(b1-4)GlcNAc
# Summary of the method: as §1
# [11] = target: Neu5Ac(a2-6)Gal(b1-4)GlcNAc(b1-2)[Neu5Ac(a2-6)Gal(b1-4)GlcNAc(b1-6)]Man(a1-6)[Neu5Ac(a2-6)Gal(b1-4)GlcNAc(b1-2)Man(a1-3)][GlcNAc(b1-4)]Man(b1-4)GlcNAc(b1-4)GlcNAc
# Summary of the method: as §1
# [12] = target: Neu5Ac(a2-6)Gal(b1-4)GlcNAc(b1-3)Gal(b1-3)GlcNAc
# Summary of the method: as §1
# [13] = target: Neu5Ac(a2-6)Gal(b1-4)GlcNAc(b1-3)Gal(b1-4)GlcNAc
# Summary of the method: as §1
# [14] = target: Neu5Ac(a2-6)Gal(b1-4)GlcNAc(b1-3)Gal(b1-4)GlcNAc(b1-2)Man(a1-3)[Neu5Ac(a2-6)Gal(b1-4)GlcNAc(b1-3)Gal(b1-4)GlcNAc(b1-2)Man(a1-6)]GalNAc
# Summary of the method: as §1
# [15] = target: Neu5Ac(a2-6)Gal(b1-4)GlcNAc(b1-3)Gal(b1-4)GlcNAc(b1-3)Gal(b1-4)GlcNAc
# Summary of the method: as §1
# [16] = target: Neu5Ac(a2-6)Gal(b1-4)GlcNAc(b1-3)Gal(b1-4)GlcNAc(b1-3)Gal(b1-4)GlcNAc(b1-2)Man(a1-3)[Neu5Ac(a2-6)Gal(b1-4)GlcNAc(b1-3)Gal(b1-4)GlcNAc(b1-3)Gal(b1-4)GlcNAc(b1-2)Man(a1-6)]GalNAc
# Summary of the method: as §1
# [17] = target: Neu5Ac(a2-6)Gal(b1-4)GlcNAc(b1-3)Gal(b1-4)GlcNAc(b1-3)GalNAc
# Summary of the method: as §1
# [18] = target: Neu5Ac(a2-6)Gal(b1-4)GlcNAc(b1-3)Gal(b1-4)GlcNAc(b1-3)[Neu5Ac(a2-6)Gal(b1-4)GlcNAc(b1-3)Gal(b1-4)GlcNAc(b1-6)]GalNAc
# Summary of the method: as §1
# [19] = target: Neu5Ac(a2-6)Gal(b1-4)GlcNAc(b1-3)Gal(b1-4)GlcNAc(b1-6)[Gal(b1-3)]GalNAc
# Summary of the method: as §1
# [20] = target: Neu5Ac(a2-6)Gal(b1-4)GlcNAc(b1-3)Gal(b1-4)[Fuc(a1-3)]GlcNAc(b1-3)Gal(b1-4)[Fuc(a1-3)]GlcNAc
# Summary of the method: as §1
# [21] = target: Neu5Ac(a2-6)Gal(b1-4)GlcNAc(b1-3)GalNAc
# Summary of the method: as §1
# [22] = target: Neu5Ac(a2-6)Gal(b1-4)GlcNAc(b1-3)[Neu5Ac(a2-6)Gal(b1-4)GlcNAc(b1-6)]GalNAc
# Summary of the method: as §1
# [23] = target: Neu5Ac(a2-6)Gal(b1-4)GlcNAc(b1-6)GalNAc
# Summary of the method: as §1
# [24] = target: Neu5Ac(a2-6)Gal(b1-4)GlcNAc(b1-6)[Gal(b1-3)GlcNAc(b1-3)]Gal(b1-4)Glc
# Summary of the method: as §1
# [25] = target: Neu5Ac(a2-6)Gal(b1-4)GlcNAc(b1-6)[Gal(b1-3)]GalNAc
# Summary of the method: as §1
# [26] = target: Neu5Ac(a2-6)Gal(b1-4)GlcNAc6S
# Summary of the method: as §1
# [27] = target: Neu5Ac(a2-6)GalNAc
# Summary of the method: as §1
# [28] = target: Neu5Ac(a2-6)GalNAc(b1-4)GlcNAc
# Summary of the method: as §1
# [29] = target: Neu5Ac(a2-6)GalNAc(b1-4)GlcNAc6S
# Summary of the method: as §1
# [30] = target: Neu5Ac(a2-6)GlcNAc(b1-4)GlcNAc
# Summary of the method: as §1
# [31] = target: Neu5Ac(a2-6)GlcNAc(b1-4)GlcNAc(b1-4)GlcNAc
# Summary of the method: as §1
binder,measurement,setting,value
B1,glycan array binding signal (z-score),[1],0.135
same,glycan array binding signal (z-score),[2],-1.16
same,glycan array binding signal (z-score),[3],0.761
same,glycan array binding signal (z-score),[4],1.14
same,glycan array binding signal (z-score),[5],2.88
same,glycan array binding signal (z-score),[6],-0.274
same,glycan array binding signal (z-score),[7],-1.19
same,glycan array binding signal (z-score),[8],-0.162
same,glycan array binding signal (z-score),[9],-0.722
same,glycan array binding signal (z-score),[10],-0.518
same,glycan array binding signal (z-score),[11],-1.61
same,glycan array binding signal (z-score),[12],-1.48
same,glycan array binding signal (z-score),[13],0.832
same,glycan array binding signal (z-score),[14],0.678
same,glycan array binding signal (z-score),[15],1.04
same,glycan array binding signal (z-score),[16],4.64
same,glycan array binding signal (z-score),[17],-1.79
same,glycan array binding signal (z-score),[18],0.818
same,glycan array binding signal (z-score),[19],0.212
same,glycan array binding signal (z-score),[20],0.234
same,glycan array binding signal (z-score),[21],-0.443
same,glycan array binding signal (z-score),[22],0.9
same,glycan array binding signal (z-score),[23],-0.332
same,glycan array binding signal (z-score),[24],-0.388
same,glycan array binding signal (z-score),[25],0.634
same,glycan array binding signal (z-score),[26],-1.53
same,glycan array binding signal (z-score),[27],-0.962
same,glycan array binding signal (z-score),[28],-1.98
same,glycan array binding signal (z-score),[29],-0.794
same,glycan array binding signal (z-score),[30],-0.213
same,glycan array binding signal (z-score),[31],0.404

# Pulled one by one from the list above:
binder,measurement,setting,value
B1,glycan array binding signal (z-score),[21],-0.443
same,glycan array binding signal (z-score),[11],-1.61
